This is one part of the list.
B1: il10ra_site1_normal_mot_HHH_b2_04275_000000272_0001_20_36_H_._HHH_b1_08149_0001_0000100012_0000001_1 (protein)
chain: SSSSTEESERVYELLRRLSEADHDGDEELFEELLEEVRELAEKIGSPLLRFQVEFLERIFHSSSS
B2: il10ra_site1_sap_16_mot_HHH_b1_05088_af2_000000046_0001_20_36_H_._HHH_b2_07571_af2_0001_0000300015_0000001_0_0001 (protein)
chain: SSSSSAQEEARELLEEAEELLRQGNPEEAMRLLQEASAFALRASDEELLQEIWELVRRLASSSSS
B3: il10ra_site1_normal_mot_HHH_b2_02337_000000026_0001_38_52_H_._HHH_b2_02232_0001_0000200025_0000001_0 (protein)
chain: SSSSDVEEEVERLIEEAKELLEEGDPRRAAEVLAEAVQFALESGDEELLRQIWELVQKIANSSSS
B4: il10ra_site1_normal_mot_HHH_b1_01886_000000262_0001_1_18_H_._HHH_b1_08614_0001_0000300029_0000002_0 (protein)
chain: SSSSSTLEWSVEFVKRVAEELAELGNPEQAQELLKKLLEHLRQAGNPELLEELEELLEELSSSSS
B5: il10ra_site1_sap_28_mot_HHH_b1_05937_af2_000000262_0001_20_37_H_._HHH_b1_07210_0001_0000200025_0000001_0_0001 (protein)
chain: SSSSDYEEKVERLLEELRELLEEGDQEKFNELILEVLRLIIRNKNAELLRELWEIVEKWGKSSSS
B6: il10ra_site1_normal_mot_HHH_b2_01205_000000166_0001_1_19_H_._HHH_b1_02342_0001_0000100007_0000001_0 (protein)
chain: SSSSDETREIYELLQEAFELLEEGDPEEARKVLEEAVELAEEAGNFSFLFSARLALRDLNSSSSS
B7: il10ra_site1_sap_21_mot_HHH_b1_00666_000000226_0001_43_56_H_._HHH_b2_06995_0001_0000100005_0000002_0_0001_af2pred_dldesign_0_af2pred (protein)
chain: SSSSNPEVEAEAERLYEELKKLLKEGKKDEVQKKFQELVELANENENLKAAQLANELLKLLSSSS
B8: il10ra_site1_normal_mot_HHH_b2_03220_af2_000000223_0001_23_40_H_._HHH_b1_05693_0001_0000100002_0000001_0 (protein)
chain: SSSSDLEEIWELARRALELRANGNPEEAEKVLEEAIRLAEELGSRVLVFNLELLLRTLERASSSS
B9: il10ra_site1_normal_mot_HHH_b2_00033_000000036_0001_41_54_H_._HHH_b1_07799_af2_0001_0000300010_0000002_0 (protein)
chain: SSSSDEEAQELFQEVWELIKRGDREELEKLLKEIEELEKEDPRLRDTLRMAVFAARQFLNSSSSS
B10: il10ra_site1_sap_19_mot_83efa5f199d74a44323d7a465a177682_0001_af2_000000100_0001_37_51_H_._HEEHE_2120_0001_0000700018_0000001_0_0001 (protein)
chain: SSSSSDEEELRELLEEIERLLEEGDHEEALRLIIEVIRLAFQLRDEEALQLAWELAKELESSSSS
B11: il10ra_site1_normal_mot_HHH_b2_06255_000000043_0001_1_20_H_._HHH_b2_06965_0001_0000500054_0000001_0 (protein)
chain: SSSSSDELFEEVREAIERANELFKKDDEEARELLEEALEKVEEAGNLLLLFSLRHAIRANSSSSS
B12: il10ra_site1_normal_mot_HHH_b2_03220_af2_000000223_0001_23_40_H_._HHH_b1_06765_0001_0000300020_0000001_0 (protein)
chain: SSSSSLEEVWELIREALEALANGDPERAEELLEEARRLAEENNSPLFEFAVRHLLKDVEESSSSS
B13: il10ra_site1_normal_mot_HHH_b2_02537_000000065_0001_1_20_H_._HHH_b2_02684_0001_0000200023_0000004_0 (protein)
chain: SSSSTDEEFRETREVIERASELFLNGNPEEAEELLEELLKKLEEEGNEALFFAAEHLLRLLSSSS
B14: il10ra_site1_normal_mot_HHH_b1_04704_af2_000000076_0001_43_57_H_._HHH_b2_04324_0001_0000100005_0000001_0_af2pred_0001 (protein)
chain: SSSSDEEVKRVKELLEKALKLARRGNPEEAERLLEEAREIAEEAGNLQLRLQVEFVARLLSSSSS
B15: il10ra_site1_sap_19_mot_a2bf7c1b5df5f4a6a28f683756f784c8_0001_1_000000075_0001_17_32_H_._HEEHE_1797_0001_0000700006_0000001_0_0001 (protein)
chain: SSSSSEEDERILELSKEAFRLLLRGNPEEAQKVLEEALRLAEEAGDERALKMLEDLLKIARSSSS
B16: il10ra_site1_sap_10_mot_HHH_b2_01447_af2_000000258_0001_1_20_H_._HHH_b2_06336_0001_0000200027_0000002_0_0001 (protein)
chain: SSSDSDEVYKLIKEAMELLREGDPEEVEELLERIRELIEKAGNFVLRYNLEILERLLEELRSSSS
B17: il10ra_site1_sap_27_mot_HHH_b1_01513_af2_000000021_0001_1_16_H_._HHH_b2_07447_af2_0001_0000200004_0000001_0_0001_af2pred_0001 (protein)
chain: SSSSSSAEEVFEQVARLLEEALRISDEEEVEELLKEAKEIAEEGNNELLKVQIRFAKERHSSSSS
B18: il10ra_site1_normal_mot_HHH_b1_03260_000000175_0001_42_57_H_._HHH_b2_04884_0001_0000400027_0000001_1 (protein)
chain: SSSSSEIEEYVRLALRFAEQLQETGDEEAVKSYLRAAEEIAKQNNDEEAEELVEEVKEKLSSSSS
B19: il10ra_site1_normal_mot_HHH_b2_02354_af2_000000157_0001_40_56_H_._HHH_b1_03438_0001_0000500041_0000001_0_af2pred_0001 (protein)
chain: SSSSSRKELLRKEFELILRLLKELNDEEAVRRVEELLEQAEEEGDPRYLKEALELAREAGSSSSS
B20: il10ra_site1_normal_mot_HHH_b2_04001_000000102_0001_19_36_H_._HHH_b2_05818_af2_0001_0000400011_0000001_0 (protein)
chain: SSSSDEEEVKERVEELLEEAEKIEDRQEVARLFIEALELAFRARDDELLREIWKVFKELTSSSSS
B21: il10ra_site1_normal_mot_HHH_b1_01886_000000262_0001_1_18_H_._HHH_b1_06187_0001_0000300020_0000002_0 (protein)
chain: SSSSTLEWSVRFALRAARLLRERGNPEQAEELLEKLLELLEETGDEELFEEVERLLEELRKSSSS
B22: il10ra_site1_normal_mot_HHH_b1_05357_000000034_0001_23_39_H_._HHH_b1_04597_0001_0000400041_0000001_0_af2pred_0001 (protein)
chain: SSSSSDEEEVERLLREAQEALENGNPHEASYLLIRAFAIAVRNRNPELRRLVEEAAKRLHSSSSS
B23: il10ra_site1_normal_mot_HHH_b1_00992_000000182_0001_23_40_H_._HHH_b1_05623_0001_0000100002_0000001_0_af2pred_0001 (protein)
chain: SSSSDEEERRLRLILELAELLIEQGDEEAARRLLEAAAELAERNNDEEILEEVERLLKELSSSSS
B24: il10ra_site1_sap_23_mot_HHH_b1_06816_000000239_0001_1_19_H_._HHH_b2_02057_af2_0001_0000500016_0000001_0_0001 (protein)
chain: SSSSSDEFNELILKIEELLYNGNPEEARELVEEMEELVKELGDPELEEYLKILKHFVEAQSSSSS
B25: il10ra_site1_normal_mot_HHH_b2_05323_000000159_0001_1_18_H_._HHH_b2_02074_af2_0001_0000500025_0000001_0 (protein)
chain: SSSSSSSEALEISREAFRAALRGDEEKARELLEEAEELAQEEGDERIERAVEDLLKALGSSSSSS
B26: il10ra_site1_normal_mot_HHH_b1_02708_af2_000000019_0001_23_39_H_._HHH_b2_02879_af2_0001_0000300013_0000001_0_af2pred_0001 (protein)
chain: SSSSNEEQRVSELLFRVVKLYADGNPEEAEKVLEEAKRLAEELGDEELERAVEIARRFVESSSSS
B27: il10ra_site1_normal_mot_HHH_b2_01999_000000006_0001_1_18_H_._HHH_b1_02563_af2_0001_0000800023_0000001_0 (protein)
chain: SSSSSSDIAELVAEAVVLATRLNDDEVFQELYELFREYIEEGDPRIEERVEELLEELRSSSSSSS
B28: il10ra_site1_sap_12_mot_HHH_b1_06789_af2_000000041_0001_1_20_H_._HHH_b1_04518_af2_0001_0000300005_0000001_0_0001 (protein)
chain: SSSSDEEEERLRELLEELEELVEEGDLERFAKVAQEALRFAFQLGDEEVLQRLFELVELIASSSS
B29: il10ra_site1_normal_mot_HHH_b1_04100_af2_000000180_0001_1_19_H_._HHH_b2_02775_0001_0000300018_0000001_0 (protein)
chain: SSSSSSDEERYVELALRFAKLVEDEEALRFLLEAAEQIARQANNEELEEAVEKVKEELSSSSSSS
B30: il10ra_site1_normal_mot_HHH_b1_07641_af2_000000285_0001_1_21_H_._HHH_b2_04382_af2_0001_0000200018_0000001_0_af2pred_0001 (protein)
chain: SSSSSEEAKEALELLKEALEARERGNPEEAREIAEEALRVAEEGGNKLLVLIIRFLLKQLSSSSS
B31: il10ra_site1_normal_mot_HHH_b2_07938_000000207_0001_42_56_H_._HHH_b2_03378_0001_0000600036_0000002_0 (protein)
chain: SSSSSREEAARTAAREIEELLEEGDEEEFKRLLRMLEIQVRLSRDEKAREVLEELRERLNSSSSS
B32: il10ra_site1_normal_mot_2c1a291787c6f40772924d4e9068d803_0001_af2_000000187_0001_34_48_H_._HHH_b2_03753_af2_0001_0000500015_0000001_0 (protein)
chain: SSSSDVERRVFELRAEAYLLFQQGNEEEAKELAEEAKELAEEEGDEALLLAVEKFQEWLRSSSSS
B33: il10ra_site1_sap_12_mot_HHH_b1_08040_000000016_0001_20_35_H_._HHH_b1_08008_0001_0000100004_0000001_0_0001_af2pred_0001 (protein)
chain: SSSSSSEVEELIREAEEAAEEQGDEEAVNMLEAIRLLAELGVLSEKVAEASARKLLMELGSSSSS
B34: il10ra_site1_normal_mot_HHH_b1_05083_af2_000000148_0001_42_57_H_._HHH_b1_02547_af2_0001_0000100005_0000002_0 (protein)
chain: SSSSSEEEEELHRLLRELAELAHEGDEEEVKELTREVEELAKELGNPLIAYQARWLLRRLSSSSS
B35: il10ra_site1_normal_mot_HHH_b1_05370_000000138_0001_1_16_H_._HHH_b2_05772_af2_0001_0000100001_0000001_0 (protein)
chain: SSSSSDELYKIAKEAIEEAVRLFREGNPEEAKEILEEALEKVEENNNEALAWALEHLLRVLSSSS
B36: il10ra_site1_sap_22_mot_HHH_b2_04327_000000030_0001_41_55_H_._HHH_b2_00587_0001_0000200015_0000001_0_0001 (protein)
chain: SSSSDQEEELAKALHELIKQALEWGDEELARMMLEALEMLAEELNDPELRELVEELEERLDSSSS
B37: il10ra_site1_normal_mot_HHH_b2_00984_000000042_0001_1_20_H_._HHH_b2_06653_0001_0000300025_0000002_0 (protein)
chain: SSSSDEEEVERRIEELLEEAREIEDEEEVSELLLEALQLAIQLGDPELLKEIWEVIKELLSSSSS

Biological target: il10ra, Q13651
Assay: yeast display titration

Apparent Kd, inactive:
B1 no binding seen
B2 no binding seen
B3 no binding seen
B4 no binding seen
B5 no binding seen
B6 no binding seen
B7 no binding seen
B8 no binding seen
B9 no binding seen
B10 no binding seen
B11 no binding seen
B12 no binding seen
B13 no binding seen
B14 no binding seen
B15 no binding seen
B16 no binding seen
B17 no binding seen
B18 no binding seen
B19 no binding seen
B20 no binding seen
B21 no binding seen
B22 no binding seen
B23 no binding seen
B24 no binding seen
B25 no binding seen
B26 no binding seen
B27 no binding seen
B28 no binding seen
B29 no binding seen
B30 no binding seen
B31 no binding seen
B32 no binding seen
B33 no binding seen
B34 no binding seen
B35 no binding seen
B36 no binding seen
B37 no binding seen

A stretch from further up:
Apparent Kd, inactive:
B25 no binding seen
B26 no binding seen

Source: article PMC10163288
